Library screen at single concentrations

Source: ChEMBL document CHEMBL3988442, “University of Dundee, Small-Polar-MMV Screening Library” (2021).

The filed quantity is “Percent Effect” (%).
How 0% and 100% were set is not recorded. Most values in the screen are low, and negative values occur.
The compounds are a random part of those screened.

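Whole-parasite assay of Trypanosoma brucei over 72 hours; the read-out is not stated. Tested at 10 µM. Direction is inferred from retests: higher values go with stronger inhibition. Values scatter widely below zero; nearly all retest evidence comes from the higher of the two concentrations used. About 2,700 compounds were tested under these conditions; 0.51% (about 14) showed 50% or more at least once.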

Cc1nccn1C1CCCN(C(=O)CCOCC(F)(F)F)C1 (stereo not drawn) gave -27.19%.
Cc1cnn(CCNCc2cc(C#N)ccc2F)c1 gave -74.96%.
COc1ccnc(N2CCCN(C(=O)Cc3ccc(C)s3)CC2)n1 gave -47.83%.
CNS(=O)(=O)c1ccc(CNC(=O)c2c(C)oc(C)c2C)cc1 gave -53.18%.
CN(Cc1noc(C2CC2)n1)C1CCN(CCc2cnn(C)c2)C1 (stereo not drawn) gave -28.58%.
CC(Cn1cccn1)NC(=O)NCc1ccc(OC2CCCC2)nc1 (stereo not drawn) gave -14.43%.
CCN(Cc1cccc(C)c1)Cc1nc2c(cnn2C)c(=O)[nH]1 gave -22.95%.
Cc1ncccc1CNCC1CCN(CCO)CC1 gave -25.47%.
COc1ccc(Cl)cc1CC(=O)NS(=O)(=O)c1ccc(C(N)=O)cc1 gave -22.02%.
NC(=O)NCCC(=O)NCc1nn(-c2ccccc2)c2c1CCC2 gave -75.35%.
O=C(NCCNc1ccc(C(F)(F)F)cn1)c1ccc(Cl)cc1F gave -33.96%.
CS(=O)(=O)N1CCN(C(=O)CCn2cccn2)CC1 gave -115.6%.
CC(C1CC1)N(C)C(=O)c1ccc(-n2ncc(C#N)c2N)cc1 (stereo not drawn) gave -35.24%.
CCOC(C)C(=O)NCc1ccc(N(C)C)cc1 (stereo not drawn) gave -34.57%.
Cc1cc(C(=O)NCc2ccnc(N3CCOCC3)c2)c(C)s1 gave -19.74%.
Cc1cnn(CC2CCCN2CC(=O)NC2CCOCC2)c1 (stereo not drawn) gave -25.55%.
CCC(=O)N1CCN(C(=O)Cn2cccn2)CC1 gave -51.95%.
CCc1ccc(OCC(O)CN2CCN(CCO)CC2)cc1.Cl.Cl (stereo not drawn) gave -38.26%.
CN(Cc1ccc(N2CCOCC2)cc1)C(=O)Cn1cccnc1=O gave -6.067%.
CS(=O)(=O)N1CCC(NC(=O)COc2ccc(Cl)cc2)CC1 gave -76.16%.
OCCN1CCN(Cc2coc(-c3cccc(Cl)c3)n2)CC1 gave -18.37%.
CC(C(=O)NCCOc1ccc(F)cc1)n1cncn1 (stereo not drawn) gave -21.58%.